{
  "sequences": {"note": "Sequences of proteins named here, by UniProt entry; tags and fusion partners are left off. Residues count along the entry.", "UniProt P35546, 29-1115": "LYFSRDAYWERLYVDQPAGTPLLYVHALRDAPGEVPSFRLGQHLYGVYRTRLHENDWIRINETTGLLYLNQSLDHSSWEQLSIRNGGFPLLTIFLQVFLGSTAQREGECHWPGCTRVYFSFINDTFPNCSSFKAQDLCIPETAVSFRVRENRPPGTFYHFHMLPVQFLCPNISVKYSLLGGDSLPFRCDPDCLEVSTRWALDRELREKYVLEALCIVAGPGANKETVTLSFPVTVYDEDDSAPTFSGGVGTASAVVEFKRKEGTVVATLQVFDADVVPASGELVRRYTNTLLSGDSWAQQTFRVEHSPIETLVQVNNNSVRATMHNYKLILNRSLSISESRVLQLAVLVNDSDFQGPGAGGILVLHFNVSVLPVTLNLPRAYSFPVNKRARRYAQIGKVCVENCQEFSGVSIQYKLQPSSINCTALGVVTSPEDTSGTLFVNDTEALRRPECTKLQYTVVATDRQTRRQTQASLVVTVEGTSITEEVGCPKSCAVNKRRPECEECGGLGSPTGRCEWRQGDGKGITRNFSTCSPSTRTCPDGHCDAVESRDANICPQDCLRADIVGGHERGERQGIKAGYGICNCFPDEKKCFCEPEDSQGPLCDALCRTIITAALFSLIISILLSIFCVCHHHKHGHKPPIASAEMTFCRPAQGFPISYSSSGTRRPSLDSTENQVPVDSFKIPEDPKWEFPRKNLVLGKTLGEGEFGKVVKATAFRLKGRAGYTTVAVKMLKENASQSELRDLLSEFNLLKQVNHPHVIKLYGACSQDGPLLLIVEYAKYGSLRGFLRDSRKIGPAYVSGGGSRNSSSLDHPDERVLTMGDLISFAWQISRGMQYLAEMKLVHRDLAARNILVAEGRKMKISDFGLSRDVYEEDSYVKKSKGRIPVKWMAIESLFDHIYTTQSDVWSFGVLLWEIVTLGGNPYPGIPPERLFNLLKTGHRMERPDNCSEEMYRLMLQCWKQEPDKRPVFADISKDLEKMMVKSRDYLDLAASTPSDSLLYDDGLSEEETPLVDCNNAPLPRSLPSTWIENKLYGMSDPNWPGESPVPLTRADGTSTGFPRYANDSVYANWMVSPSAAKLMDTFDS"},
  "source": "patent US11963964B2",
  "about": "“Small molecules for mouse satellite cell proliferation” (President and Fellows of Harvard College, priority 2011, dated 2024)",
  "target": "T1, RET (Mus musculus, UniProt P35546)",
  "T1 construct": "Satellite cells express RET in vitro; endogenous in cells; host or cells: satellite cells in culture (mouse, inferred)",
  "test": "RET phosphorylation in vitro",
  "assay_type": "cell-based",
  "conditions": "CEP701 treatment (FIGS. 45A-45D)",
  "note": "At least one structure is not confirmed: it was looked up by name or label, or the drawing left a doubt.",
  "data": [
    {"smiles": "C[C@]12O[C@H](C[C@]1(O)CO)n1c3ccccc3c3c4c(c5c6ccccc6n2c5c31)CNC4=O", "note": "[CEP701, Lestaurtinib]", "values": [
      {"measurement": "RET phosphorylation in vitro", "value": "inhibits RET phosphorylation"}
    ]}
  ]
}
